Data as given in publication doi:10.1101/2020.03.12.989277.
These are yes or no findings as the source states them, for the method shown. Binding seen in cells or lysates may run through a third protein. Some entries that bind do so weakly or less than the wild type. For part of these data: Tags and fused reporters may be left off the sequences shown.

Protein sequences, listed by entry. Tags and fused reporters are not part of them.
UniProt Q02248: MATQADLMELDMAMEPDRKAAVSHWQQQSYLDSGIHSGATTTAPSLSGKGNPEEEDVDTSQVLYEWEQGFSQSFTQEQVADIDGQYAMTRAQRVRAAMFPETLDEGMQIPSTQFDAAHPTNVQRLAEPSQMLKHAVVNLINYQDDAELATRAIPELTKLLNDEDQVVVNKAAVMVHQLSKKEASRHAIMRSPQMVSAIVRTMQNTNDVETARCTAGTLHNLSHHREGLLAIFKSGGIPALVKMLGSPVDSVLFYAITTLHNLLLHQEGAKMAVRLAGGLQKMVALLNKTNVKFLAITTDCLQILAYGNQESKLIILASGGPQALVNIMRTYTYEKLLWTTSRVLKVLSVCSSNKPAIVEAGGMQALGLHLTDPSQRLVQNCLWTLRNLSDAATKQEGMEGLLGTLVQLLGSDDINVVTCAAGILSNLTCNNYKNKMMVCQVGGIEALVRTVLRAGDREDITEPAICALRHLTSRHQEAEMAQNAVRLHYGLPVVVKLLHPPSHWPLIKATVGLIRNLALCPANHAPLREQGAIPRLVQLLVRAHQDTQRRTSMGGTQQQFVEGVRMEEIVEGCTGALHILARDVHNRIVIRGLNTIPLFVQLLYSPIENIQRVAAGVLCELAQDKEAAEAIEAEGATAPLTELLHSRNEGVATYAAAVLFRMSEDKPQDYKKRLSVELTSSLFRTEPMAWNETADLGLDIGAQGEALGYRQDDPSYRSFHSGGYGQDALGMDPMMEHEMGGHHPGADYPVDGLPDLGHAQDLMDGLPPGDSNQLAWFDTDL
UniProt Q2M2I8: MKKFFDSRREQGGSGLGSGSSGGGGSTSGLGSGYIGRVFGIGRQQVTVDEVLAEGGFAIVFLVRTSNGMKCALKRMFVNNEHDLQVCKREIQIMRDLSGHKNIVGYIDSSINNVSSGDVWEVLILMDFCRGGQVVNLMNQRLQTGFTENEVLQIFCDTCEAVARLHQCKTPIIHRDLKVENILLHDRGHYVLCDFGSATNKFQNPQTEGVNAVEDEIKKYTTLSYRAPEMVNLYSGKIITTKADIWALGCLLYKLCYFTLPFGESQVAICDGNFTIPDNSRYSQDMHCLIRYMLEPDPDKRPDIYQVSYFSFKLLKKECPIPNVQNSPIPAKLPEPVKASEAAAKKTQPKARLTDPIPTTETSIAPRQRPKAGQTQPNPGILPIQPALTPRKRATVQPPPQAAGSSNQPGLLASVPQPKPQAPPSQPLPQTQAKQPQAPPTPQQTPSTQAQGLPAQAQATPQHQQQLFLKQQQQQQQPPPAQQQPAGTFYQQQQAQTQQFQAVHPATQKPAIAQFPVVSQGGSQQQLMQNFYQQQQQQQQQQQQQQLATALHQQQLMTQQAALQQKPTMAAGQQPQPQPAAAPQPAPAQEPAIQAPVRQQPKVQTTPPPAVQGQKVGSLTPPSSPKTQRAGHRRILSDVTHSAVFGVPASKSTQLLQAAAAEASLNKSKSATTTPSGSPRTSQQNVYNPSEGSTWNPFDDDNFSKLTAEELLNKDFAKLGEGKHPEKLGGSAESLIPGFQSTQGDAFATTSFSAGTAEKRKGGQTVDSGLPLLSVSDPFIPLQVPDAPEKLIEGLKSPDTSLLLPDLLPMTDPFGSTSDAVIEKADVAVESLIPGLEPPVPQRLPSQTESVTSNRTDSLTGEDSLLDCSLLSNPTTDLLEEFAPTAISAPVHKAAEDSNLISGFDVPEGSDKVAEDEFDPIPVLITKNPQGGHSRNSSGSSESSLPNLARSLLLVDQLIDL
UniProt Q03267: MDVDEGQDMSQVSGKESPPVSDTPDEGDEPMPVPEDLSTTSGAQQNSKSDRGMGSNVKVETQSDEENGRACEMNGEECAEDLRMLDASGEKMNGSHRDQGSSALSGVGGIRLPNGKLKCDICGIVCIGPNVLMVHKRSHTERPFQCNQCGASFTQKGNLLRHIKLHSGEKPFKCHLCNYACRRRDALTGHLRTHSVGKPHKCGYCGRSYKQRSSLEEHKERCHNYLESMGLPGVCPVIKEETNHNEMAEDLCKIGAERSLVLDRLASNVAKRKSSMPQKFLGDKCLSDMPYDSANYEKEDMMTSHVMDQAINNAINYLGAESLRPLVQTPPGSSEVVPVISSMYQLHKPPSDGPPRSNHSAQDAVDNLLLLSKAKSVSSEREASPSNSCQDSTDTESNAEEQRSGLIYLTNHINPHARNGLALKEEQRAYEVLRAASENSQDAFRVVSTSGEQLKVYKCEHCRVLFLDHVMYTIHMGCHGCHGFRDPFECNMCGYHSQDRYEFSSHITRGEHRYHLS
UniProt P32121: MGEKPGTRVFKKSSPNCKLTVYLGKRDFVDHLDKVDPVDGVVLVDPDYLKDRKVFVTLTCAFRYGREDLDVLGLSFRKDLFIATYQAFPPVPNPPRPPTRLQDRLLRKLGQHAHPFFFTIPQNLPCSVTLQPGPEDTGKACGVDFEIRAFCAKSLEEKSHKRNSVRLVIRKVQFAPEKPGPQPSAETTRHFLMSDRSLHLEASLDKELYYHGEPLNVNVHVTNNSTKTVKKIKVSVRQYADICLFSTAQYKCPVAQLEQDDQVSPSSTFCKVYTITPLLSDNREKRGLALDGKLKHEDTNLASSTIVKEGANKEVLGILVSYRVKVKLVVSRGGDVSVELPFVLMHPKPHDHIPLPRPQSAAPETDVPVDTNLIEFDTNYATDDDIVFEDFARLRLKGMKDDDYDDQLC

Tests used:
[1] = biological target: T1, LGR5 with a C-terminal HA-tag (UniProt O75473); experiment: pull-down
T1 sequence: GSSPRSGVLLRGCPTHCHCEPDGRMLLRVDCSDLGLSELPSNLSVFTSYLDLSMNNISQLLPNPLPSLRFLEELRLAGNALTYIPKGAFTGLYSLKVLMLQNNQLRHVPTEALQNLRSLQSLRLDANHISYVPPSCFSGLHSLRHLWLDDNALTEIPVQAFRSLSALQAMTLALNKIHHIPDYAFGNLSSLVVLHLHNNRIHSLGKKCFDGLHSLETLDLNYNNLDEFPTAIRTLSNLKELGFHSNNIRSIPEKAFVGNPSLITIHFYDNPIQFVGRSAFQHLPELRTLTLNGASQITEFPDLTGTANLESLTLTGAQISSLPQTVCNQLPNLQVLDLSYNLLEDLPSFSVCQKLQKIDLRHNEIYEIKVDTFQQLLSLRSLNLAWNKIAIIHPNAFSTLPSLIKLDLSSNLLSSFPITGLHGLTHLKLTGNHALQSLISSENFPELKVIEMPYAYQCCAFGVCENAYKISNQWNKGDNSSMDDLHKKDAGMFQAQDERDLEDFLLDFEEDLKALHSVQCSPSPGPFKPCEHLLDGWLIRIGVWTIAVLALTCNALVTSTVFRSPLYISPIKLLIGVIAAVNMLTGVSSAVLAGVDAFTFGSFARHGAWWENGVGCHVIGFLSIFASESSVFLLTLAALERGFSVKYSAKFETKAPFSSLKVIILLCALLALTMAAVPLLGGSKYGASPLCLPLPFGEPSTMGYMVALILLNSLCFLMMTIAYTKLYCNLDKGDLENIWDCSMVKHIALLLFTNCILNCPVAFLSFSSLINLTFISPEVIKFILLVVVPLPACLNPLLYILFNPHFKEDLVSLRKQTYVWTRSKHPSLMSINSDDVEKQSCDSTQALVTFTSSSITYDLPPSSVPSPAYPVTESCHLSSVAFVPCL

[2] = biological target: FLAG-tagged β-catenin (mouse) (UniProt Q02248); experiment: co-IP

| binding [1] | binding [2] | Substance |
| --- | --- | --- |
| binds | – | AAK1 (from UniProt Q2M2I8 1-961) |
| – | binds | Ikzf1 (Ikaros) (from UniProt Q03267 1-517) |
| binds | – | β-arrestin (ARRB2) (from UniProt P32121 1-409) |
